Measured values as given in PubChem BioAssay AID2685 (National Center for Advancing Translational Sciences (NCATS), 2010).
Some of the results follow. Shown are side measurements of this screen, not its main read-out; they come without a call. The list favours compounds with an active or inconclusive main result. Words in brackets tell the shape of the fitted curve; partial curves, single points and poor fits give uncertain potencies.

Experiment: qHTS Assay for Lipid Storage Modulators in Drosophila S3 Cells;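 for cell number change: cells counted by Cell Tracker Red CMTPX staining in the red channel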
Settings: BODIPY lipid droplet fluorescence, 18-24 h; for cell number change: measured here: cell count max response, cells fed with added oleic acid
How it was run: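 Drosophila S3 cells got compounds at several concentrations plus oleic acid (400 uM solution). Laser-scanning cytometry with 488 nm excitation read lipid droplets at 500-530 nm and cells at 575-640 nm. Percent activity was relative to 20 uM Triacsin C.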

[1] = measured here: cell number channel AC50, cells fed with added oleic acid
[2] = measured here: lipid fluorescence (Fed channel) AC50, cells fed with added oleic acid

Structure (SMILES)	cell number change [%]	AC50 [1]	AC50 [2]
Cc1noc(C)c1COC(=O)COc1cccc2c1OC(C)(C)C2	1.82		
CCOc1cccc(OCCOCCn2cnc3ccccc3c2=O)c1	100	23.1 µM [rising, partial curve]	
O=C(CSc1nc2ccccc2s1)Nc1ccc(N2CCOCC2)c(Cl)c1	-21.2		16.4 µM [falling, single point]
c1ccc(SCCCCNC2CCCC2)cc1	88.3	3.66 µM [rising, full curve, poor fit]	
CC(=O)c1c(C)[nH]c(C(=O)NCCc2ccccc2)c1C	-10.3		0.00517 µM [rising, full curve, poor fit]
Cc1ccccc1OCCn1c(C)nc2ccccc21	-25.5		
CC(C)NC[C@@H](O)COc1ccc(CC(N)=O)cc1	-39.4	29.1 µM [falling, single point]	29.1 µM [falling, single point]
Cc1ccccc1-c1nnc(-c2ccccc2)o1	-34.9	32.6 µM [falling, single point]	29.1 µM [falling, single point]
O=C(Nc1ccc(F)cc1)C1CCN(C(=O)NCc2ccccc2)CC1	7.98		
CC(NC(=O)c1ccc(Cl)cc1Cl)C(c1ccccc1)N1CCOCC1 (stereo not drawn)	0.611		23.1 µM [rising, single point]
Fc1ccc(NC(=S)Nc2cccnc2)c(F)c1F	44.5	29.1 µM [rising, single point]	29.1 µM [rising, single point]
O=C(CNc1cccc(C(F)(F)F)c1)N/N=C/c1cn(-c2ccccc2)nc1-c1ccccc1	-59.6	32.6 µM [falling, single point]	29.1 µM [falling, single point]
CC[C@@]12C(=O)N(c3cccc(Cl)c3)C(=O)N1[C@H](c1cccc(C)c1)[C@@H]1C(=O)N(Cc3ccccc3)C(=O)[C@@H]12	9.51		2.91 µM [falling, single point]
COc1ccc(Cc2nc3ccc(C(=O)NCCc4ccccn4)cc3o2)cc1OC	-30.2	0.517 µM [falling, full curve, poor fit]	0.13 µM [falling, full curve, poor fit]
Cc1cccc(NS(=O)(=O)c2cc(C(=O)N3CCCCCC3)ccc2C)c1	5.82		
Cc1ccnc(NCn2nnc3ccccc32)c1	0.977		14.6 µM [falling, partial curve, poor fit]
O=C(CSc1nnc(-c2ccccc2)o1)OCc1ccccc1	2.38		
O=C(CCS(=O)(=O)c1ccc(Cl)cc1)Nc1ccc(F)cc1	-9.15		0.58 µM [rising, single point]
O=C(CSC(=S)N1CCCC1)Nc1ccc(Br)cc1Cl	80	29.1 µM [rising, single point]	

Some values from the list.
Value for O=C(CSc1nnc(-c2ccccc2)o1)OCc1ccccc1 under cell number change [%]: 2.38
Value for CC(NC(=O)c1ccc(Cl)cc1Cl)C(c1ccccc1)N1CCOCC1 (stereo not drawn) under cell number change [%]: 0.611

Remaining list, next part.

Structure (SMILES)	cell number change [%]	AC50 [1]	AC50 [2]
CCOc1cccc2cc(C(=O)NCc3ccccc3)c(=N)oc12	25.6		10.3 µM [rising, partial curve, poor fit]
O=C(COC(=O)c1cc(-c2ccc(Cl)s2)nc2ccccc12)NCc1ccco1	-10.7	0.58 µM [rising, full curve]	
CCOC(=O)c1c(NC(=O)C2CCCO2)sc(C(N)=O)c1C (stereo not drawn)		4.11 µM [rising, partial curve]	
O=C(NCCCN1CCCC1)Nc1ccc(F)cc1	8.11	0.731 µM [rising, single point]	
CCNc1cc(N2CCCC2)ccc1[N+](=O)[O-]	-22	6.51 µM [rising, single point]	6.51 µM [rising, partial curve]
Clc1ccccc1CN1CCN(/N=C/c2ccncc2)CC1	-23.5		29.1 µM [falling, single point]
Cc1cc(Cl)c(S(=O)(=O)N2CCCC2)cc1OCC(N)=O	-74	20.6 µM [falling, partial curve]	20.6 µM [falling, partial curve, poor fit]
CCCCNC(=O)c1cccc(C(=O)NCCCC)c1	-5.66		29.1 µM [falling, single point]
O=C(COC(=O)c1ccc2c(c1)OCO2)NCc1ccc2c(c1)OCO2	62.9	25.9 µM [rising, single point]	23.1 µM [rising, partial curve]
O=c1c2ccccc2nc(-c2ccc(Cl)c(Cl)c2)n1O	16.1		1.3 µM [falling, partial curve]
CC(=O)Nc1ccc(C(=O)CSc2nccc(=O)[nH]2)cc1	-73.3	25.9 µM [falling, partial curve]	23.1 µM [falling, partial curve]
CC1CCCCN1CCNC(=O)c1ccc2c(c1)N(Cc1ccccc1F)C(=O)c1ccccc1S2=O (stereo not drawn)	4.28		0.00461 µM [rising, full curve, poor fit]
CC1=CC=CC2=NC(=O)CC(C)(C(=O)N(CC(=O)NC3CCCC3)c3ccccc3C)N12 (stereo not drawn)	1.55	4.61 µM [falling, partial curve, poor fit]	2.59 µM [falling, partial curve]
COc1cccc(NC(=O)c2cccc(OC)c2OC)c1			6.51 µM [rising, partial curve]
[N-]=[N+]=NCCN1CCN(CCc2ccccc2)CCC1=O	-1.8		16.4 µM [rising, partial curve]
Cc1ccnc(NS(=O)(=O)c2ccc(NS(=O)(=O)c3cc(Cl)ccc3Cl)cc2)n1	-4.03		0.00461 µM [falling, full curve, poor fit]
Cc1cc(C(=O)N/N=C/C=C/c2ccc([N+](=O)[O-])cc2)n[nH]1	19.9		20.6 µM [rising, partial curve]
COC(=O)c1ccc(CNC(=O)c2cc(COc3cncc(Cl)c3)on2)cc1	-31.7	29.1 µM [falling, single point]	29.1 µM [falling, single point]
